{"source": "PubChem BioAssay AID1259295 | Sanger Institute, 2017", "aim": "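Kinase knockdowns that sensitise colorectal cancer cells to BYL719, cetuximab or trametinib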 (secondary deconvolution screen, four single siRNAs per gene)", "cell system": "human COLO678 colorectal cancer cells", "reagent": "single siRNA against human genes", "conditions": "anchor drug BYL719 at 1 µM, cetuximab at 5 µg/ml or trametinib at 10 nM, or DMSO vehicle alone", "detection": "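Averaged cell survival relative to control pool 2 with DMSO, plus synergy scores weighing knockdown combined with each of three drugs against either separately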", "reading the numbers": "synergy score with BYL719: higher = stronger combined killing with BYL719; synergy score with cetuximab: higher = stronger combined killing with cetuximab; synergy score with trametinib: higher = stronger combined killing with trametinib", "hit rule": "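a single siRNA is called active when its synergy score is above 0.10 for at least one of the three drugs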", "note": "The whole screen tested 160 reagents; shown is a part drawn at random. In the full data, 40 (25%) are marked active. 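How the synergy score is calculated is not defined; single-siRNA calls need support from other siRNAs and cell lines.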 Unmarked entries are inactive. The numbers tell different reagents against one gene apart. Further read-outs or replicates are left out here. Reagent sequences are not shown. Not stated in the record: the amount of reagent, the time to read-out."}
{"gene": "PIM1 (Pim-1 proto-oncogene, serine/threonine kinase)", "reagent no.": 1, "synergy score with BYL719": -0.00993, "synergy score with cetuximab": -0.0701, "synergy score with trametinib": 0.0721}
{"gene": "PIM1 (Pim-1 proto-oncogene, serine/threonine kinase)", "reagent no.": 2, "synergy score with BYL719": "0.125 (active)", "synergy score with cetuximab": -0.00756, "synergy score with trametinib": 0.086}
{"gene": "PIM1 (Pim-1 proto-oncogene, serine/threonine kinase)", "reagent no.": 3, "synergy score with BYL719": 0.0925, "synergy score with cetuximab": -0.00973, "synergy score with trametinib": -0.0589}
{"gene": "PIM1 (Pim-1 proto-oncogene, serine/threonine kinase)", "reagent no.": 4, "synergy score with BYL719": "0.0561 (active)", "synergy score with cetuximab": -0.0744, "synergy score with trametinib": 0.193}
{"gene": "HSPB8 (heat shock protein family B (small) member 8)", "reagent no.": 1, "synergy score with BYL719": -0.144, "synergy score with cetuximab": -0.0753, "synergy score with trametinib": 0.056}
{"gene": "HSPB8 (heat shock protein family B (small) member 8)", "reagent no.": 2, "synergy score with BYL719": -0.112, "synergy score with cetuximab": 0.0988, "synergy score with trametinib": 0.0151}
{"gene": "HSPB8 (heat shock protein family B (small) member 8)", "reagent no.": 3, "synergy score with BYL719": -0.0741, "synergy score with cetuximab": -0.0292, "synergy score with trametinib": -0.0157}
{"gene": "HSPB8 (heat shock protein family B (small) member 8)", "reagent no.": 4, "synergy score with BYL719": -0.0135, "synergy score with cetuximab": 0.0963, "synergy score with trametinib": 0.0557}
{"gene": "SF3B1 (splicing factor 3b subunit 1)", "reagent no.": 1, "synergy score with BYL719": -0.0292, "synergy score with cetuximab": -0.0201, "synergy score with trametinib": -0.102}
{"gene": "SF3B1 (splicing factor 3b subunit 1)", "reagent no.": 2, "synergy score with BYL719": 0.0044, "synergy score with cetuximab": -0.0721, "synergy score with trametinib": -0.128}
{"gene": "SF3B1 (splicing factor 3b subunit 1)", "reagent no.": 3, "synergy score with BYL719": "0.153 (active)", "synergy score with cetuximab": 0.0681, "synergy score with trametinib": 0.112}
{"gene": "SF3B1 (splicing factor 3b subunit 1)", "reagent no.": 4, "synergy score with BYL719": 0.0989, "synergy score with cetuximab": 0.0635, "synergy score with trametinib": -0.0263}
{"gene": "CDK6 (cyclin dependent kinase 6)", "reagent no.": 1, "synergy score with BYL719": -0.13, "synergy score with cetuximab": -0.142, "synergy score with trametinib": -0.0976}
{"gene": "CDK6 (cyclin dependent kinase 6)", "reagent no.": 2, "synergy score with BYL719": -0.0905, "synergy score with cetuximab": 0.0335, "synergy score with trametinib": -0.0107}
{"gene": "CDK6 (cyclin dependent kinase 6)", "reagent no.": 3, "synergy score with BYL719": -0.171, "synergy score with cetuximab": -0.11, "synergy score with trametinib": 0.0209}
{"gene": "CDK6 (cyclin dependent kinase 6)", "reagent no.": 4, "synergy score with BYL719": -0.116, "synergy score with cetuximab": -0.063, "synergy score with trametinib": 0.0899}
{"gene": "ACVR1 (activin A receptor type 1)", "reagent no.": 1, "synergy score with BYL719": -0.0903, "synergy score with cetuximab": -0.0793, "synergy score with trametinib": 0.0407}
{"gene": "ACVR1 (activin A receptor type 1)", "reagent no.": 2, "synergy score with BYL719": -0.209, "synergy score with cetuximab": -0.0847, "synergy score with trametinib": 0.0353}
{"gene": "ACVR1 (activin A receptor type 1)", "reagent no.": 3, "synergy score with BYL719": -0.118, "synergy score with cetuximab": -0.0735, "synergy score with trametinib": 0.0451}
{"gene": "ACVR1 (activin A receptor type 1)", "reagent no.": 4, "synergy score with BYL719": -0.242, "synergy score with cetuximab": -0.0141, "synergy score with trametinib": -0.0518}
{"gene": "CRIM1 (cysteine rich transmembrane BMP regulator 1)", "reagent no.": 1, "synergy score with BYL719": "0.00378 (active)", "synergy score with cetuximab": 0.0379, "synergy score with trametinib": 0.155}
{"gene": "CRIM1 (cysteine rich transmembrane BMP regulator 1)", "reagent no.": 2, "synergy score with BYL719": -0.0403, "synergy score with cetuximab": -0.0754, "synergy score with trametinib": 0.0131}
{"gene": "CRIM1 (cysteine rich transmembrane BMP regulator 1)", "reagent no.": 3, "synergy score with BYL719": "0.0687 (active)", "synergy score with cetuximab": -0.066, "synergy score with trametinib": 0.107}
{"gene": "CRIM1 (cysteine rich transmembrane BMP regulator 1)", "reagent no.": 4, "synergy score with BYL719": "0.19 (active)", "synergy score with cetuximab": 0.053, "synergy score with trametinib": 0.138}

2 neighbouring entries already listed, quoted:
{"gene": "CDK6 (cyclin dependent kinase 6)", "reagent no.": 3, "synergy score with BYL719": -0.171, "synergy score with cetuximab": -0.11, "synergy score with trametinib": 0.0209}
{"gene": "CDK6 (cyclin dependent kinase 6)", "reagent no.": 4, "synergy score with BYL719": -0.116, "synergy score with cetuximab": -0.063, "synergy score with trametinib": 0.0899}
